PubChem BioAssay AID504793, Drosophila RNAi Screening Center | 2011
In all, the deposit lists about 23,000 reagents; shown is an unselected part of those with a known target gene and a result. Over the whole deposit, 62 (0.27%) got an active call. 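Calls come from follow-up tests whose scores are not deposited, so confirmed genes may have low counts here; counts are not normalised per plate.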 Raw values are not corrected between plates. A plus sign joins genes that one reagent is predicted to hit. No sequences are given here.

Assay: 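Knock-downs allowing continued mitosis even though DNA is damaged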 (primary screen)
Cells: Drosophila S2R+ cells
Reagents: long dsRNA against Drosophila genes, about 0.25 µg dsRNA per well
Duration: 4 days of dsRNA, then 4 hours of drug before read-out
Treatment: doxorubicin 0.5 µM for 4 hours to cause double-strand breaks, in cells also given a low, harmless dose of dsRNA against nbs to sensitise the assay
Measurement: 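Mitotic index as the number of phospho-histone H3-positive cells in each well following doxorubicin, given as raw counts without normalisation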
Reading the numbers: mitotic cells: higher = more cells in mitosis, weaker G2 arrest
Rule for the call: 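Genes are called active only when high mitotic counts were reproduced with independent dsRNAs and mitosis was checked for delay without damage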
Meaning of the calls: active = confirmed in follow-up tests; inactive = not confirmed

{"predicted target": "Rbf2 (GeneID 41941)", "dsRNA": "DRSC16816", "mitotic cells, replicate 1": 3, "outcome": "inactive"}
{"predicted target": "HPS1 (GeneID 36656)", "dsRNA": "DRSC06195", "mitotic cells, replicate 1": 2, "outcome": "inactive"}
{"predicted target": "LysP (GeneID 38129)", "dsRNA": "DRSC08676", "mitotic cells, replicate 1": 6, "outcome": "inactive"}
{"predicted target": "LysP (GeneID 38129)", "dsRNA": "DRSC25210", "mitotic cells, replicate 1": 7, "outcome": "inactive"}
{"predicted target": "att-ORFB + DPCoAC", "dsRNA": "DRSC15556", "mitotic cells, replicate 1": 8, "outcome": "inactive"}
{"predicted target": "Inx5 (GeneID 32901)", "dsRNA": "DRSC20051", "mitotic cells, replicate 1": 5, "outcome": "inactive"}
{"predicted target": "CG15450 (GeneID 33064)", "dsRNA": "DRSC20522", "mitotic cells, replicate 1": 7, "outcome": "inactive"}
{"predicted target": "CG17996 + Tsen2", "dsRNA": "DRSC02650", "mitotic cells, replicate 1": 12, "outcome": "inactive"}
{"predicted target": "LSm3 (GeneID 42842)", "dsRNA": "DRSC15920", "mitotic cells, replicate 1": 13, "outcome": "inactive"}
{"predicted target": "CG12391 (GeneID 36170)", "dsRNA": "DRSC06147", "mitotic cells, replicate 1": 4, "outcome": "inactive"}
{"predicted target": "dpr2 (GeneID 3346227)", "dsRNA": "DRSC02370", "mitotic cells, replicate 1": 5, "outcome": "inactive"}
{"predicted target": "dpr2 (GeneID 3346227)", "dsRNA": "DRSC02371", "mitotic cells, replicate 1": 3, "outcome": "inactive"}
{"predicted target": "Hsc70-5 (GeneID 36583)", "dsRNA": "DRSC07442", "mitotic cells, replicate 1": 14, "outcome": "inactive"}
{"predicted target": "Hsc70-5 (GeneID 36583)", "dsRNA": "DRSC24015", "mitotic cells, replicate 1": 5, "outcome": "inactive"}
{"predicted target": "zip (GeneID 38001)", "dsRNA": "DRSC04725", "mitotic cells, replicate 1": 8, "outcome": "inactive"}
{"predicted target": "zip (GeneID 38001)", "dsRNA": "DRSC22489", "mitotic cells, replicate 1": 10, "outcome": "inactive"}
{"predicted target": "zip (GeneID 38001)", "dsRNA": "DRSC28416", "mitotic cells, replicate 1": 4, "outcome": "inactive"}
{"predicted target": "CG16723 (GeneID 42781)", "dsRNA": "DRSC15138", "mitotic cells, replicate 1": 15, "outcome": "inactive"}
{"predicted target": "CG16723 (GeneID 42781)", "dsRNA": "DRSC28144", "mitotic cells, replicate 1": 6, "outcome": "inactive"}
{"predicted target": "sunz (GeneID 40811)", "dsRNA": "DRSC12559", "mitotic cells, replicate 1": 4, "outcome": "inactive"}
{"predicted target": "Reg-5 (GeneID 37968)", "dsRNA": "DRSC04647", "mitotic cells, replicate 1": 6, "outcome": "inactive"}
{"predicted target": "natalisin (GeneID 5740700)", "dsRNA": "DRSC14967", "mitotic cells, replicate 1": 3, "outcome": "inactive"}
{"predicted target": "natalisin (GeneID 5740700)", "dsRNA": "DRSC23390", "mitotic cells, replicate 1": 6, "outcome": "inactive"}
{"predicted target": "natalisin (GeneID 5740700)", "dsRNA": "DRSC26336", "mitotic cells, replicate 1": 9, "outcome": "inactive"}
{"predicted target": "CG1440 (GeneID 31776)", "dsRNA": "DRSC17915", "mitotic cells, replicate 1": 10, "outcome": "inactive"}
{"predicted target": "mRpL50 (GeneID 38796)", "dsRNA": "DRSC11015", "mitotic cells, replicate 1": 8, "outcome": "inactive"}
{"predicted target": "mRpL50 (GeneID 38796)", "dsRNA": "DRSC29216", "mitotic cells, replicate 1": 7, "outcome": "inactive"}
{"predicted target": "CG17059 + Fsn", "dsRNA": "DRSC26666", "mitotic cells, replicate 1": 3, "outcome": "inactive"}
{"predicted target": "Golgin84 (GeneID 42905)", "dsRNA": "DRSC15269", "mitotic cells, replicate 1": 1, "outcome": "inactive"}
{"predicted target": "Spx (GeneID 31558)", "dsRNA": "DRSC18720", "mitotic cells, replicate 1": 10, "outcome": "inactive"}
{"predicted target": "Spx (GeneID 31558)", "dsRNA": "DRSC23542", "mitotic cells, replicate 1": 8, "outcome": "inactive"}
{"predicted target": "TwdlC (GeneID 43245)", "dsRNA": "DRSC14749", "mitotic cells, replicate 1": 10, "outcome": "inactive"}
{"predicted target": "TwdlC (GeneID 43245)", "dsRNA": "DRSC25255", "mitotic cells, replicate 1": 5, "outcome": "inactive"}
{"predicted target": "CG8960 (GeneID 38280)", "dsRNA": "DRSC08612", "mitotic cells, replicate 1": 6, "outcome": "inactive"}
{"predicted target": "CG8960 (GeneID 38280)", "dsRNA": "DRSC27132", "mitotic cells, replicate 1": 5, "outcome": "inactive"}

Taken from above:
For “mitotic cells, replicate 1”, zip (GeneID 38001) [DRSC28416] shows 4
HPS1 (GeneID 36656) [DRSC06195], outcome: inactive
For “mitotic cells, replicate 1”, mRpL50 (GeneID 38796) [DRSC11015] reads 8
